No constants are given. Whether binding was seen depends on the method and setting. Binding seen in cells or lysates may run through a third protein. Some results given as binding are weak or reduced against the parent protein; the word gives no strength.
Molecular target: Myc-tagged human SNAP29 (synaptosome associated protein 29), transfected (human) (UniProt O95721)
Experiment: co-IP

Protein sequences, listed by entry. Tags and fused reporters are not part of them.
UniProt O95721: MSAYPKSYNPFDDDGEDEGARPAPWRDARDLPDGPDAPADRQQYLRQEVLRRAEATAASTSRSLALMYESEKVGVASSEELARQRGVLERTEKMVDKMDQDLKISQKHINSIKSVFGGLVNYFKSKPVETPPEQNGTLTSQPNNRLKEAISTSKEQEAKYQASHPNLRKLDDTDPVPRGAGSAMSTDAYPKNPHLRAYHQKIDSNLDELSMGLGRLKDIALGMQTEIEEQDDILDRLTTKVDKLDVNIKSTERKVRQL
UniProt Q01220: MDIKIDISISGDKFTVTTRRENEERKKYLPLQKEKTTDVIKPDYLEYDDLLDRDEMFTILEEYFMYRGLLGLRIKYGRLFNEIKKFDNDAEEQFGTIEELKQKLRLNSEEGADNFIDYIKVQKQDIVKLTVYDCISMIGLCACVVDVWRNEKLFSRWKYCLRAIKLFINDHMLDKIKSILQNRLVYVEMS

Flag-tagged A52 of vaccinia virus Western Reserve (WR178), transfected (from UniProt Q01220 1-190)
binding: binds
